Results from PMC6135765.
Results are given in words; binding and its absence hold for the method and conditions named. Sequences can lack the tags named with a protein.

Legend:
[1] = target: His8-MBP:AtHb2 (Arabidopsis thaliana class 2 non-symbiotic hemoglobin / phytoglobin, before tag cleavage) (Arabidopsis thaliana) (UniProt O24521); assay: SEC; analytical size exclusion chromatography of the purified proteins, before and after His8-MBP removal; apparent native size in solution; both purified
[2] = target: AtHb2 (Arabidopsis thaliana class 2 non-symbiotic hemoglobin / phytoglobin, His8-MBP removed) (Arabidopsis thaliana) (UniProt O24521); assay: as above

B1: His8-MBP:AtHb2 (Arabidopsis thaliana class 2 non-symbiotic hemoglobin / phytoglobin, before tag cleavage) (protein, UniProt O24521 1-158)
chain: MGEIGFTEKQEALVKESWEILKQDIPKYSLHFFSQILEIAPAAKGLFSFLRDSDEVPHNNPKLKAHAVKVFKMTCETAIQLREEGKVVVADTTLQYLGSIHLKSGVIDPHFEVVKEALLRTLKEGLGEKYNEEVEGAWSQAYDHLALAIKTEMKQEES
With B1 the binding [1] was “no binding”.

B2: AtHb2 (Arabidopsis thaliana class 2 non-symbiotic hemoglobin / phytoglobin, His8-MBP removed) (protein, UniProt O24521 1-158)
chain: MGEIGFTEKQEALVKESWEILKQDIPKYSLHFFSQILEIAPAAKGLFSFLRDSDEVPHNNPKLKAHAVKVFKMTCETAIQLREEGKVVVADTTLQYLGSIHLKSGVIDPHFEVVKEALLRTLKEGLGEKYNEEVEGAWSQAYDHLALAIKTEMKQEES
With B2 the binding [2] was “no binding”.
